From patent publication US12202828B2, “Bicyclic heterocycle compounds and their uses in therapy” (ASTEX THERAPEUTICS LIMITED, priority 2013, dated 2025) come the findings set out here.

Chains of the proteins cited; added tags and fusions are not shown.
UniProt Q12809, whole entry: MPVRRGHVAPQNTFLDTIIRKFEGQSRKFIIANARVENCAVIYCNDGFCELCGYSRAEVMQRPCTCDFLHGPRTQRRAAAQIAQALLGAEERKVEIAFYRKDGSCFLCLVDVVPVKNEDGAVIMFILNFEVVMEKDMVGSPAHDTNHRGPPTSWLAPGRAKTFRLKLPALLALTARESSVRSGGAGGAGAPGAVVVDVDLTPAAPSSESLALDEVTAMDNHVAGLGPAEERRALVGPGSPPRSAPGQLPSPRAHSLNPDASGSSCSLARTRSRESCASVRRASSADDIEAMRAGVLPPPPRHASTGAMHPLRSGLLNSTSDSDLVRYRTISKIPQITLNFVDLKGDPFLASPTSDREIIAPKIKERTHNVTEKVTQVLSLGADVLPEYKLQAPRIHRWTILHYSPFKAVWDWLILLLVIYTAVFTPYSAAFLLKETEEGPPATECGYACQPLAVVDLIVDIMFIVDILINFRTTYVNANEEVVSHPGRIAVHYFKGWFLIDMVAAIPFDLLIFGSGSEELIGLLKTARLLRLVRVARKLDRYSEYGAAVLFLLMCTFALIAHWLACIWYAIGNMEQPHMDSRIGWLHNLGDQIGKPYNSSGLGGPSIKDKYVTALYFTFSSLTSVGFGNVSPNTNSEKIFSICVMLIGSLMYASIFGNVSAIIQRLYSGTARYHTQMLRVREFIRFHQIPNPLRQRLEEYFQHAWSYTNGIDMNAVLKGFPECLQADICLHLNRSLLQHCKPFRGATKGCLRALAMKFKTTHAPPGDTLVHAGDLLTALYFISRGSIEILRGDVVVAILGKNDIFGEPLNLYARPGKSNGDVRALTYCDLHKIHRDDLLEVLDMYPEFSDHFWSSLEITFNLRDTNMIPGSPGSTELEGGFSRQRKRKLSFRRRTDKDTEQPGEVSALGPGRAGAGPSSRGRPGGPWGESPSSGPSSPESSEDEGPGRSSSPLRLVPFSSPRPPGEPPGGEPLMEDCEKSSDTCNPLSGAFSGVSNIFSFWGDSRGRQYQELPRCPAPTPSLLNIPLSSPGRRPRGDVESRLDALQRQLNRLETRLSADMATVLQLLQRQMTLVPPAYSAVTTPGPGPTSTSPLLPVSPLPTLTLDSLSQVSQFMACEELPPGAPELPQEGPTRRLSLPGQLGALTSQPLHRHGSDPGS

In the data set the target is hERG ion channel (Homo sapiens, UniProt Q12809). In words: Population Patch Clamp (PPC) hERG assay in CHO K1 cells. The format is cell-based. Conditions: @ 10 μM; tested form: 2HCl. In general terms: The patch-clamp technique gives a direct electrical read-out from membranes.

Each structure is given as a SMILES string. Certain results were filed several times, with different values. Only these are listed. The source may hold further records. Results that share an entry do not match, cause unknown; some may be repeats, others may stem from another dose, organism or construct than stated.

As to `C[C@@H]1CN(CC(=O)N2CC(C)(C)c3ncc(Cc4ccc(F)cc4)cc32)[C@@H](CN2CCOC[C@H]2C)CN1`, the “hERG PPC (PI)” value is 42% @ 10 (n = 2) and 38% @ 10 (n = 3).
